From patent publication US5705486A, “Isolation of novel peptides from green barley leaf extract and use same to inhibit human platelet aggregation” (Hagiwara; Yoshihide, priority 1996, dated 1998)
Part of at least one peptide drawing is inferred or uncertain, most often the ends. No end group written: not given here.

System: blood platelets
Experiment: ADP-induced platelet aggregation assay (platelet-rich plasma, aggregometer)
Type: cell-based, human
Conditions: in vitro; isolated penta-peptides

| Substance | inhibition of ADP-induced aggregation of blood platelets |
| --- | --- |
| DDNDN [MB-F13, Asp-Asp-Asn-Asp-Asn] | inhibit |
| DDSQQ [MB-F14, Asp-Asp-Ser-Gln-Gln] | inhibit |
